These are yes or no findings as the source states them, for the method shown. In cells and extracts the contact can be indirect. Binding can be weak; no strength is given.

The target in assay [1] is T1, full-length Slit (Drosophila (endogenous in embryos)) (UniProt P24014).
T1 sequence: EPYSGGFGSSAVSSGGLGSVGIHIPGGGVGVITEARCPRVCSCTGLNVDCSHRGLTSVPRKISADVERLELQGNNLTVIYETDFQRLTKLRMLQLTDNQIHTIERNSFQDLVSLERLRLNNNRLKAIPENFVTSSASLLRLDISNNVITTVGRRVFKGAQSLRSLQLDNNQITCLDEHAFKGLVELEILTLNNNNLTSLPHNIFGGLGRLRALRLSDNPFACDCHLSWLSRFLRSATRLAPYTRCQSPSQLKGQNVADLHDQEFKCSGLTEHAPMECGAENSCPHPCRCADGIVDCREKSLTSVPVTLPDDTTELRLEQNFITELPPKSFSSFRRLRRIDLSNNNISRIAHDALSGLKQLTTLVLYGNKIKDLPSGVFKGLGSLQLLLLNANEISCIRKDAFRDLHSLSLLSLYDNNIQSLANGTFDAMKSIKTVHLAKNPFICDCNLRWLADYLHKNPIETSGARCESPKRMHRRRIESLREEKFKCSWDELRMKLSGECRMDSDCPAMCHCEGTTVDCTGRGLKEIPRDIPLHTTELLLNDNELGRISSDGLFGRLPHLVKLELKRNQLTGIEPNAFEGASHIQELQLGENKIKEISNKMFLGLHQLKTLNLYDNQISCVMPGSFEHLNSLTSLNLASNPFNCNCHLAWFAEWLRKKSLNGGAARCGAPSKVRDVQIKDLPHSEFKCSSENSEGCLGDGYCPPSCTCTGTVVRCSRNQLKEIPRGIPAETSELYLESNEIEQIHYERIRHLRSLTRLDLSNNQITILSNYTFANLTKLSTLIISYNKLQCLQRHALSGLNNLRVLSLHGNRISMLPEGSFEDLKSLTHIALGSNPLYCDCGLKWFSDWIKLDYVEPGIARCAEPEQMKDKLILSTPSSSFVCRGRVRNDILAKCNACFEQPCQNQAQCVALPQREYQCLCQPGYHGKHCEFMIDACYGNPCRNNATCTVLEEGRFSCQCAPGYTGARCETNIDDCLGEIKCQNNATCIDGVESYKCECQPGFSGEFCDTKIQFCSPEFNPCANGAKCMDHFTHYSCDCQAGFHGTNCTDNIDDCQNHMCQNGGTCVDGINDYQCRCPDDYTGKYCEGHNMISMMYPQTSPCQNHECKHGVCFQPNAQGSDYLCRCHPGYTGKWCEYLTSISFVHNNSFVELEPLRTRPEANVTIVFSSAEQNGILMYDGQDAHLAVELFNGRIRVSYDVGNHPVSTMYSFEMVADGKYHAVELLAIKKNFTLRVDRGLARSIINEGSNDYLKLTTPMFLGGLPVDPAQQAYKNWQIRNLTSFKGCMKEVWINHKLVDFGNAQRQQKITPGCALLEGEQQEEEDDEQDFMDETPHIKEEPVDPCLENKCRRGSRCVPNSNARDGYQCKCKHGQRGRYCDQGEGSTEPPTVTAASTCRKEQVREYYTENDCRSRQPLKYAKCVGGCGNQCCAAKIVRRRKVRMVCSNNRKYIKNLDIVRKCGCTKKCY
As to the kind of experiment: co-IP; immunoprecipitation with anti-Slit-C (recognises full-length Slit too) from extracts of ~16 hpf wild-type and ptc mutant embryos (50 mM HEPES pH 7.2, 100 mM NaCl, 1 mM MgCl2, 1 mM CaCl2, 1% NP-40; overnight at 4 C); blot for Robo1 and Slit.

The target of assay [2] is Robo1 (Drosophila (endogenous in embryos)). As to the kind of experiment: co-IP; immunoprecipitation with anti-Robo1 monoclonal from extract of ~15-16 hpf wild-type embryos (50 mM HEPES pH 7.2, 100 mM NaCl, 1 mM MgCl2, 1 mM CaCl2, 1% NP-40; overnight at 4 C); blot with anti-Slit-C or anti-Slit-N.

Consider “Robo1 (Drosophila (endogenous in embryos)) (receptor)”, for which the binding result in assay [1] is recorded as “binds”.

B1: full-length Slit (ligand, UniProt P24014 37-1504)
chain: T1 sequence
As to B1, in assay [2], the binding result is “binds”.

The values above are taken from PMC5714384.
